# Laboratory results published in PubChem BioAssay AID2417 (National Center for Advancing Translational Sciences (NCATS), 2010).
# About 4,300 (3.1%) of roughly 140,000 compounds were called active. Inconclusive results, whose numbers are uncertain, are shown with a selection of clear calls.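 The calls were made as follows: active = readout at or below -70, meaning at least 70% loss of cells showing the perinucleolar compartment, a nuclear body marking cancer cells; inconclusive = readout between -30 and a set limit; inactive = the rest.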
# Assay: High Content Assay for Compounds that inhibit the Assembly of the Perinucleolar Compartment;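 also: plate controls were DMSO wells for no effect and camptothecin positive control wells for full effect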
# Settings: PC3M PTB-GFP, PNC prevalence imaging, 16 h; at 10 µM; active compounds read low
# In short: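 Read-out is percentage of cells bearing a perinucleolar compartment, from automated 20x imaging of fixed, Hoechst-stained PC3M PTB-GFP cells. Cells were seeded 4 h, then exposed 16 h to compound (23 nl of library stock) in duplicate plates.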
row,Compound,"activity change (PNC), negative = inhibition"
1,COc1ccc(C2C(C(=O)NCc3ccco3)CCC(=O)N2c2ccc(OC)cc2)cc1 (stereo not given),inactive: -9.14%
2,COc1ccc(NC(=O)CN2C(=O)C(C)SC(C)C2=O)c(OC)c1 (stereo not given),inactive: 32.9%
3,Cc1ccc(C)c(NS(=O)(=O)c2ccc(OCC(=O)NCc3cccnc3)cc2)c1,inconclusive: -41.1%
4,CCOC(=O)c1[nH]c2ccc(OC)cc2c1NC(=S)N1CCN(c2ccc(F)cc2)CC1,inconclusive: -53.5%
5,O=C(N/N=C/c1cccs1)c1c[nH]c2ccccc12,inconclusive: -69.1%
6,OC(CNCc1ccco1)Cn1c2ccccc2c2ccccc21 (stereo not given),inconclusive: -44.2%
7,Cc1nc(NC(=O)c2cccnc2)ccc1Br,inconclusive: -56.7%
8,COc1ccc(C(=O)COC(=O)CN2C(=O)C3C4C=CC(C5CC45)C3C2=O)cc1 (stereo not given),inactive: -11.8%
9,Cc1cc(C(F)(F)F)c2c(C)nn(CCc3nn[nH]n3)c2n1,inconclusive: -76.3%
10,Clc1ccc2nc(N3CCN(c4ccccc4)CC3)sc2c1,inconclusive: -51.6%
11,N#Cc1cc(-c2ccccc2)nc(Oc2ccc(Cl)cc2)n1,inconclusive: -50.1%
12,Cc1cccc(NC(c2ccc(C)s2)c2ccc3ccc(C)nc3c2O)n1 (stereo not given),inactive: -27.5%
13,CCOC(CCn1c(SCc2ccc([N+](=O)[O-])cc2)nc2ccccc2c1=O)OCC,inconclusive: -41.5%
14,CN(c1ccccc1)S(=O)(=O)c1cccc(NC(=O)Cc2c(F)cccc2Cl)c1,inconclusive: -41.4%
15,CN(C)C(=O)C(CCN1CCC(O)(c2ccc(Cl)cc2)CC1)(c1ccccc1)c1ccccc1,inconclusive: -34.1%
16,Cc1cccc(N2CC(C(=O)O)CC2=O)c1 (stereo not given),inconclusive: -63.9%
17,CCOC(=O)c1c(C)[nH]c2ccc(O)cc12,inactive: 20.3%
18,COc1ccc2c(c1)SCC/C2=C\CN1C(=O)CCC1=O,inactive: -4.35%
19,CCCCN(C)C(=O)C1CCN(Cc2ccccn2)CC1,active: -84.5%
20,Cc1cc2cc(NC(=O)c3ccco3)ccc2[nH]1,inconclusive: -33.4%
21,Nc1nc(CSc2ccccn2)nc(Nc2ccccc2)n1,inconclusive: -33.1%
22,CC(C)c1nc2sc3c(=O)[nH]cnc3c2c2c1CCC2,active: -84.4%
23,Cc1ccc(S(=O)(=O)O/N=C2\CCCc3ccccc32)cc1,inactive: 37.8%

row,Compound,"activity change (PNC), negative = inhibition"
1,O=C(Nc1ccc(N2CCN(C(=O)c3ccccc3)CC2)cc1)c1cc2ccccc2o1,inactive: -6.23%
2,C1=CC2CC1CC2CN1CCN(Cc2ccccc2)CC1 (stereo not given),inactive: 25.6%
3,CC1(C)CC(=O)N(c2ccccc2)C1(C)O (stereo not given),active: -86.1%
4,CCOC(=O)N1N=C(CC)CC1(O)C(F)(F)F (stereo not given),active: -85.9%
5,Nc1nc2ccccc2n1/N=C/c1ccc([N+](=O)[O-])s1,active: -83%
6,COc1ccc(C/C(N)=N/OC(=O)COc2ccccc2C)cc1,inconclusive: -59.3%
7,CC(=O)N1CCc2c(sc3c2c(=O)n(-c2ccccc2)c(=O)n3Cc2ccccc2Cl)C1,active: -114%
8,CC1=Nn2c(nnc2-c2n[nH]c3c2CCC3)SC1,inconclusive: -33.9%
9,S=C(NCCC(c1ccccc1)c1ccccc1)Nc1cccc(Cl)c1,inactive: 42.1%
10,CCOc1ccc2nc(SCC#N)c(C#N)cc2c1,inconclusive: -60.4%
11,Cc1ccc(C(=O)OCC(=O)NC(=O)c2cccn2C)cc1,active: -80.8%
12,Cc1onc(-c2c(Cl)cccc2Cl)c1C(=O)NCCN1CCOCC1,inconclusive: -30.6%
13,C=C(C)C1CC=C(C)/C(=N/NC(=O)COc2ccc(Cl)cc2)C1 (stereo not given),inconclusive: -59.2%
14,Cc1nc(N)sc1Cc1ccc2c(c1)OCO2,inconclusive: -56.1%
15,Cc1cc2ccccc2n1CCNC(=O)Cc1cccc2ccccc12,active: -108%
16,O=C(c1ccc(C#Cc2ccccc2)o1)N1CCN(c2ccccn2)CC1,inconclusive: -32.3%
17,CCCCc1ccc(NC(=S)NCc2cccnc2)cc1,inactive: 55.9%
18,O=C(Nc1ccccc1)Nc1nc(-c2ccc(Cl)cc2)cs1,inconclusive: -33.8%
19,C=C1C(=O)[C@@]23[C@H](O)C[C@@H]4C(C)(C)CC[C@H](O)[C@]4(C)[C@@H]2C[C@H](O)[C@@H]1[C@H]3O,inactive: 0.249%
20,CCOC(=O)CSc1nnc(NC(=O)c2cccc([N+](=O)[O-])c2C)s1,inconclusive: -63.9%
21,Cc1ccc2nc(NC(=O)c3ccc(Cn4cc(Cl)cn4)o3)sc2c1,active: -100%
22,COc1ccc(NC(=O)CN2CCOCC2)cc1,inconclusive: -31.7%

# A section from further up, as a working copy:
row,Compound,"activity change (PNC), negative = inhibition"
4,CCOC(=O)N1N=C(CC)CC1(O)C(F)(F)F (stereo not given),active: -85.9%
5,Nc1nc2ccccc2n1/N=C/c1ccc([N+](=O)[O-])s1,active: -83%
